According to paper PMC9895993:
Results are given in words; binding and its absence hold for the method and conditions named. Tags and fused reporters may be left off the sequences shown.

Molecular target: YbeY from Staphylococcus aureus (SaYbeY), full length with C-terminal hexahistidine tag (Staphylococcus aureus Mu50) (UniProt P67136)
Experiment: SEC-MALS; Superdex-200 10/300 GL; YbeY loaded at 1 mg/ml; 20 mM Tris-HCl (pH 8.0), 150 mM NaCl, 2 mM ZnCl2; 18-angle MALS detector; both purified

binding: no binding (tested: 1 mg/ml)
B1: YbeY from Staphylococcus aureus (SaYbeY), full length with C-terminal hexahistidine tag (enzyme, UniProt P67136 1-155)
chain: MFTIDFSDHTGLVKDAWYKQIEDLLEFAKKEEHIEDDAELSVTFVDKQEIQEINRTYRDKDKVTDVISFALEEDEPEIDFSGLDIPRVLGDIIICTDVAQEQANNYGHSFERELGFLALHGFLHLLGYDHMTEADEKEMFGRQDTILNAYGLTRD
